Our source for the IC50 and Ki values is US20120041012A1, “SUBSTITUTED SPIROCYCLIC AMINES USEFUL AS ANTIDIABETIC COMPOUNDS” (priority 2009, published 2012).

Chains of the proteins cited; added tags and fusions are not shown.
UniProt P35346, whole entry: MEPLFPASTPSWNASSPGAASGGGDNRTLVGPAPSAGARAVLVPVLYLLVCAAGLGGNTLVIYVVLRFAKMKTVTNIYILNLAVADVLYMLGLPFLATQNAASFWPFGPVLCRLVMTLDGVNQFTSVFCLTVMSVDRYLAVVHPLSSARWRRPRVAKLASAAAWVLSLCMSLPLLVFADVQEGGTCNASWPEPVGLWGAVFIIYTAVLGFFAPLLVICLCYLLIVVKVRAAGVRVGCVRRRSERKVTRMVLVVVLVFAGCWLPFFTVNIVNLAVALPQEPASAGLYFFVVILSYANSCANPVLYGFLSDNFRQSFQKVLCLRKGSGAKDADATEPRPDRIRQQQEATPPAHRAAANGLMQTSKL

Broadly, the IC50 is the concentration that inhibits the measured activity by half. As usually defined, the Ki is the dissociation constant of the complex between target and ligand, obtained from inhibition or displacement.

The target of test [1] is T1, SSTR5 (Homo sapiens, UniProt P35346). Put plainly: Functional assay of SSTR5 mediated cyclic AMP production in SSTR5 expressing CHO cells. Conditions: read-out: SSTR5 (cAMP) IC50, Table 2, FSK plus SS-28.
In test [2] the target is T1, SSTR5. Put plainly: SSTR5 receptor-ligand binding assay, CHO-K1 cell membranes, 125I-SRIF radioligand. Conditions: read-out: SSTR5 Ki, Table 2.

SMILES strings stand for the structures. Like-named read-outs stand apart in the source and are kept apart here. Structures were worked out from names or drawings and are uncertain.

For `CCOc1cc(CN2CCC3(CC2)CC(=O)N(c2ccc(C(=O)O)cc2)C3)cc(OCC)c1-c1ccc(F)cc1F`, the IC50 on SSTR5 [1] turned out to be 0.95 nM. The inhibitory constant (Ki) at SSTR5 [2] was determined as 0.735 nM.
For the molecule `O=C(O)c1ccc(N2CC3(CCN(Cc4cc(OC5CC5)c(Br)c(OC5CC5)c4)CC3)CC2=O)cc1`, on SSTR5 [1] (tested form: TFA), the IC50 was found to be 5.6 nM. For the same molecule, the inhibition constant (Ki) at SSTR5 [2] (tested form: TFA) was found to be 9.2 nM.
